Measurements taken from PubChem BioAssay AID220 (DTP/NCI, 2004).
The list shows only some results of the screen, not a fair sample: it is rich in T/C values a quarter to a half above the control, in often repeated tests (any T/C) and in doses without a T/C. Further doses and runs are listed elsewhere. T/C is the treated group as % of the vehicle group. Schedules are NCI's codes, taken here to give the interval after Q, in days (D) or hours (H), and the number of doses after X. Some doses have a count of surviving animals in place of a T/C: the source files T/C as zero there, which appears to mark a toxic dose or a test without result, not a measured value. Counts of survivors are from the toxicity check (mostly the fifth day) where no day follows; animals may have died later. Some entries were tested several times; the values are given in rising order.

System: CD8F1 mice, subcutaneous mammary adenocarcinoma, T/C%
Experiment: NCI In Vivo Anticancer Drug Screen. Data for tumor model Mammary Adenocarcinoma CD8F1 (subcutaneous) in CD8F1
Conditions: higher T/C = larger tumour
Summary of the method: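 Antitumor activity is assessed in transplantable-tumor mice by comparing the treated group with a vehicle-treated control group. Survival or tumor size serves as the measure, reported as T divided by C.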

BrCC[Se]c1ccccc1
T/C (T/C endpoint: median tumor weight (est.), dose: 100.0 mg/kg/injection, schedule: Q07DX005 (ip), vehicle: saline with Tween-80, evaluated on day 30): 145 % of control
survivor count (T/C endpoint: median tumor weight (est.), dose: 200.0 mg/kg/injection, schedule: Q07DX005 (ip), vehicle: saline with Tween-80): 0 of 10 on day 30

C1CNCOC1
survivor count (T/C endpoint: median tumor weight change, dose: 125.0 mg/kg/injection, schedule: Q01DX001 (ip), vehicle: saline): 6 of 10 on day 36
survivor count (T/C endpoint: median tumor weight change, dose: 400.0 mg/kg/injection, schedule: Q01DX001 (ip), vehicle: saline): 2 of 7 on day 29
survivor count (T/C endpoint: median tumor weight change, dose: 500.0 mg/kg/injection, schedule: Q01DX001 (ip), vehicle: saline): 1 of 10 on day 36
survivor count (T/C endpoint: median tumor weight change, dose: 800.0 mg/kg/injection, schedule: Q01DX001 (ip), vehicle: saline): 0 of 8 on day 29
survivor count (T/C endpoint: median tumor weight change, dose: 1000.0 mg/kg/injection, schedule: Q01DX001 (ip), vehicle: saline): 0 of 10 on day 36
survivor count (T/C endpoint: median tumor weight change, dose: 2000.0 mg/kg/injection, schedule: Q01DX001 (ip), vehicle: saline): 0 of 10 on day 36

COC(C(=O)C(O)C(C)O)C1CC2C=C3C=C(OC4CC(OC5CC(O)C(OC)C(C)O5)C(OC(C)=O)C(C)O4)C(C)C(=O)C3=C(O)C2=C(O)C1OC1CC(OC2CC(OC3CC(C)(O)C(O)C(C)O3)C(O)C(C)O2)C(O)C(C)O1 (stereo not drawn)
survivor count (T/C endpoint: mean tumor weight, dose: 4.0 mg/kg/injection, schedule: Q07DX005 (ip), vehicle: saline): 2 of 10

C=C1C(=O)C2=CC1CCC(=O)C1(C)CCC(OC(C)=O)C(C)(C)C1CC2O (stereo not drawn)
survivor count (T/C endpoint: median tumor weight change, dose: 300.0 mg/kg/injection, schedule: Q01DX001 (ip), vehicle: Klucel (hydroxypropylcellulose) (HPC)): 0 of 10 on day 36
survivor count (T/C endpoint: median tumor weight change, dose: 600.0 mg/kg/injection, schedule: Q01DX001 (ip), vehicle: Klucel (hydroxypropylcellulose) (HPC)): 0 of 10 on day 36

C=CC12COC(=O)C(=C)C1C1OC(=O)C(=C)C1C(O)C2 (stereo not drawn)
T/C (T/C endpoint: mean tumor weight, dose: 2.5 mg/kg/injection, schedule: Q07DX006 (ip), vehicle: saline, evaluated on day 42): 130 % of control
survivor count (T/C endpoint: mean tumor weight, dose: 10.0 mg/kg/injection, schedule: Q07DX006 (ip), vehicle: saline): 3 of 10

Cc1ccccc1N(CC1CO1)CC1CO1 (stereo not drawn)
survivor count (T/C endpoint: median tumor weight (est.), dose: 25.0 mg/kg/injection, schedule: Q07DX005 (ip), vehicle: saline): 4 of 10 on day 30
survivor count (T/C endpoint: median tumor weight (est.), dose: 800.0 mg/kg/injection, schedule: Q07DX005 (ip), vehicle: saline): 5 of 10 on day 30

CC(=O)N(C)C
survivor count (T/C endpoint: median tumor weight change, dose: 7200.0 mg/kg/injection, schedule: Q01DX001 (ip), vehicle: saline): 0 of 10 on day 27 and 0 of 10 on day 32

CC1CN=C(c2ccc(NC(=O)c3ccc(C(=O)Nc4ccc(C5=NCC(C)N5)cc4)cc3)cc2)N1 (stereo not drawn)
T/C (T/C endpoint: median tumor weight (est.), dose: 12.5 mg/kg/injection, schedule: Q07DX005 (ip), vehicle: Klucel (hydroxypropylcellulose) (HPC), evaluated on day 30): 136 % of control
T/C (T/C endpoint: median tumor weight (est.), dose: 25.0 mg/kg/injection, schedule: Q07DX005 (ip), vehicle: Klucel (hydroxypropylcellulose) (HPC), evaluated on day 30): 130 % of control

COCCCNC1=C(C#N)C(=O)NC(c2cccc([N+](=O)[O-])c2)S1 (stereo not drawn)
survivor count (T/C endpoint: median tumor weight change, dose: 2000.0 mg/kg/injection, schedule: Q01DX001 (ip), vehicle: saline with Tween-80): 4 of 10 on day 35

CC(C)CCC(=O)c1ccoc1
survivor count (T/C endpoint: median tumor weight change, dose: 2.5 mg/kg/injection, schedule: Q03HX003 (ip), vehicle: saline with Tween-80): 0 of 10 on day 25
survivor count (T/C endpoint: median tumor weight change, dose: 5.0 mg/kg/injection, schedule: Q03HX003 (ip), vehicle: saline with Tween-80): 0 of 10 on day 25

[N-]=[N+]=C1N=CN=C1c1ncn[nH]1
T/C (T/C endpoint: median tumor weight (est.), dose: 25.0 mg/kg/injection, schedule: Q07DX005 (ip), vehicle: carboxymethylcellulose (CMC), evaluated on day 30): 127 % of control

CCCCCn1c(C)cc(/C=C\c2ccc3cc(C)ccc3[n+]2C)c1C
survivor count (T/C endpoint: median tumor weight (est.), dose: 0.62 mg/kg/injection, schedule: Q07DX005 (ip), vehicle: Klucel (hydroxypropylcellulose) (HPC)): 4 of 10 on day 30
survivor count (T/C endpoint: median tumor weight (est.), dose: 1.25 mg/kg/injection, schedule: Q07DX005 (ip), vehicle: Klucel (hydroxypropylcellulose) (HPC)): 3 of 10 on day 30
survivor count (T/C endpoint: median tumor weight (est.), dose: 2.5 mg/kg/injection, schedule: Q07DX005 (ip), vehicle: Klucel (hydroxypropylcellulose) (HPC)): 5 of 10 on day 30
survivor count (T/C endpoint: median tumor weight (est.), dose: 5.0 mg/kg/injection, schedule: Q07DX005 (ip), vehicle: Klucel (hydroxypropylcellulose) (HPC)): 3 of 10 on day 30
survivor count (T/C endpoint: median tumor weight (est.), dose: 10.0 mg/kg/injection, schedule: Q07DX005 (ip), vehicle: Klucel (hydroxypropylcellulose) (HPC)): 0 of 10 on day 30
survivor count (T/C endpoint: median tumor weight (est.), dose: 20.0 mg/kg/injection, schedule: Q07DX005 (ip), vehicle: Klucel (hydroxypropylcellulose) (HPC)): 0 of 10 on day 30

Nc1nc(/C=C(/O)c2ccccc2)c2ncn(C3OC(CO)C(O)C3O)c2n1 (stereo not drawn)
T/C (T/C endpoint: median tumor weight change, dose: 50.0 mg/kg/injection, schedule: Q01DX001 (ip), vehicle: distilled water + Tween-80, evaluated on day 36): 128 % of control
survivor count (T/C endpoint: median tumor weight change, dose: 100.0 mg/kg/injection, schedule: Q01DX001 (ip), vehicle: distilled water + Tween-80): 4 of 10 on day 38 and 5 of 10 on day 36
survivor count (T/C endpoint: median tumor weight change, dose: 200.0 mg/kg/injection, schedule: Q01DX001 (ip), vehicle: distilled water + Tween-80): 0 of 10 on day 38 and 1 of 10 on day 36
survivor count (T/C endpoint: median tumor weight change, dose: 400.0 mg/kg/injection, schedule: Q01DX001 (ip), vehicle: distilled water + Tween-80): 0 of 10 on day 36 and 0 of 10 on day 38
survivor count (T/C endpoint: median tumor weight change, dose: 800.0 mg/kg/injection, schedule: Q01DX001 (ip), vehicle: distilled water + Tween-80): 0 of 10 on day 36 and 5 of 10 on day 38

CCCC(=O)Nc1ncnc2c1ncn2C1OC2COP(=O)(O)OC2C1OC(=O)CCC (stereo not drawn)
T/C (T/C endpoint: mean tumor weight, dose: 100.0 mg/kg/injection, schedule: Q01DX009 (ip), vehicle: saline, evaluated on day 73): 140 % of control

COc1cc2c[n+](C)c3c(c2cc1OC)Cc1cc2c(cc1-3)OCO2
survivor count (T/C endpoint: median tumor weight change, dose: 250.0 mg/kg/injection, schedule: Q01DX001 (ip), vehicle: suspension in saline): 2 of 10 on day 29
survivor count (T/C endpoint: median tumor weight change, dose: 500.0 mg/kg/injection, schedule: Q01DX001 (ip), vehicle: suspension in saline): 0 of 10 on day 29
survivor count (T/C endpoint: median tumor weight change, dose: 1000.0 mg/kg/injection, schedule: Q01DX001 (ip), vehicle: suspension in saline): 0 of 10 on day 29

O=C(O)C1CC1.[Ag]
survivor count (T/C endpoint: median tumor weight (est.), dose: 25.0 mg/kg/injection, schedule: Q07DX005 (ip), vehicle: distilled water + Tween-80): 1 of 10 on day 30
survivor count (T/C endpoint: median tumor weight (est.), dose: 50.0 mg/kg/injection, schedule: Q07DX005 (ip), vehicle: distilled water + Tween-80): 0 of 10 on day 30
survivor count (T/C endpoint: median tumor weight (est.), dose: 100.0 mg/kg/injection, schedule: Q07DX005 (ip), vehicle: distilled water + Tween-80): 0 of 10 on day 30
survivor count (T/C endpoint: median tumor weight (est.), dose: 200.0 mg/kg/injection, schedule: Q07DX005 (ip), vehicle: distilled water + Tween-80): 0 of 10 on day 30

COc1cc2c3c(cccc3c1)C(=O)N(CCN(C)C)C2=O
survivor count (T/C endpoint: median tumor weight change, dose: 200.0 mg/kg/injection, schedule: Q01DX001 (ip), vehicle: saline with Tween-80): 0 of 10 on day 28 and 5 of 10 on day 29
survivor count (T/C endpoint: median tumor weight change, dose: 400.0 mg/kg/injection, schedule: Q01DX001 (ip), vehicle: saline with Tween-80): 0 of 10 on day 29 and 1 of 10 on day 28
survivor count (T/C endpoint: median tumor weight change, dose: 800.0 mg/kg/injection, schedule: Q01DX001 (ip), vehicle: saline with Tween-80): 0 of 10 on day 28 and 0 of 10 on day 29

COc1ccc(S(=O)(=O)N=N/C=C2\C=CC=CN2O)cc1OC
T/C (T/C endpoint: median tumor weight change, dose: 125.0 mg/kg/injection, schedule: Q01DX001 (ip), vehicle: saline with Tween-80, evaluated on day 29): 141 % of control

O=C1C=CC(=O)N1c1ccc(Cl)cc1
T/C (T/C endpoint: median tumor weight (est.), dose: 10.0 mg/kg/injection, schedule: Q07DX003 (ip), vehicle: Klucel (hydroxypropylcellulose) (HPC), evaluated on day 21): 125 % of control
survivor count (T/C endpoint: median tumor weight (est.), dose: 40.0 mg/kg/injection, schedule: Q07DX003 (ip), vehicle: Klucel (hydroxypropylcellulose) (HPC)): 2 of 10

O=C(O)c1c2c(nc3ccccc13)Cc1ccccc1-2
survivor count (T/C endpoint: median tumor weight (est.), dose: 400.0 mg/kg/injection, schedule: Q07DX005 (ip), vehicle: Klucel (hydroxypropylcellulose) (HPC)): 1 of 10

COC(=O)Nc1cn2cc(C(=O)c3cccs3)ccc2n1
survivor count (T/C endpoint: median tumor weight change, dose: 500.0 mg/kg/injection, schedule: Q01DX001 (ip), vehicle: Klucel (hydroxypropylcellulose) (HPC)): 5 of 10 on day 29
survivor count (T/C endpoint: median tumor weight change, dose: 1000.0 mg/kg/injection, schedule: Q01DX001 (ip), vehicle: Klucel (hydroxypropylcellulose) (HPC)): 1 of 10 on day 29

O=C(O)CC(=O)O.[NH-]C1CCCCC1[NH-].[Pt+2] (stereo not drawn)
survivor count (T/C endpoint: median tumor weight (est.), dose: 160.0 mg/kg/injection, schedule: Q07DX005 (ip), vehicle: dextrose): 3 of 10

S=c1[nH]cc2cnccn12
T/C (T/C endpoint: median tumor weight (est.), dose: 50.0 mg/kg/injection, schedule: Q07DX005 (ip), vehicle: saline with Tween-80, evaluated on day 30): 125 % of control
survivor count (T/C endpoint: median tumor weight (est.), dose: 400.0 mg/kg/injection, schedule: Q07DX005 (ip), vehicle: saline with Tween-80): 2 of 10 on day 30
